One molecule from PMC8009872, “Beam image-shift accelerated data acquisition for near-atomic resolution single-particle cryo-electron tomography” (Nature Communications, 2021) can be followed below.

This experiment deals with protein VC1979 of Vibrio cholerae (dNTPase) (Vibrio cholerae) (UniProt Q9KQL9). Description: cryo-EM structure; single-particle analysis on images from the same grid as the tomography; about 34k particles from the best 64 micrographs; total dose ~60 e-/Å^2; both purified.

These are yes or no findings as the source states them, for the method shown. Some binding calls cover weakened binding; strength is not graded here.

B1: protein VC1979 of Vibrio cholerae (dNTPase) (enzyme)
chain: QVSLNPEWLARNNDEHKIRRNDHRSPFQRDRARILHSAAFRRLQAKTQVHGTSLNDFHRTRLTHSLEAAQIGTGIVAQIKLKQPEFRELLPSDSLIDSLCLAHDIGHPPYGHGGEIALNYMMRDHGGFEGNAQTFRIVTSLEPYTEHHGMNLSRRTLLGLLKYPALLSATRAAIPPPAVAHQRQLKAKDWSPAKGIYDCDLASLDWVLEPLCESDRELLGQMRAEPSSPKEHRKTRFKSLDCSIMELADDIAYGVHDLEDAIVLGMVTRAQWQEAAAAQLAECGDPWFEEHIAELSEMLFSGKHYVRKDAIGGIVNALLTSISVKPVEAPFHNELLAFNAYIEPHMGNALEVLKHFVSQYVIQIPQVQRFEYKGQQLIMDLFEALSADPERLLPQATGEKWRKAQEQDEGMRVICDYIAAMTDAYAQRLHQQLFSAQSHY
Turning to B1, the binding entry is given as “binds”.
